Each structure is given as a SMILES string.

What is called viability is a read-out of living cells in per cent, often relative to untreated cells.

The nature of the data set: MM6 cell growth/viability (WST-1 reagent). It is filed as cell-based. Conditions: human, MonoMac-6 (MM6) macrophage cell line, drug alone 10 μM, n=3, read-out: viability of MM6 cells compared to untreated MM6 cells. How it is done:
Cells from the human macrophage cell-line MonoMac-6 (MM6) (Ziegler-Heitbrock et al, Int. J. Cancer, 41, 456 (1988)) were cultured (37° C./5% CO2) in RPMI-1640 medium supplemented with 1 mM sodium pyruvate, × nonessential amino acids, 10 μg/mL insulin, 1 mM oxalacetic acid, 100 units/mL penicillin, 100 μg/mL streptomycin and 5% (v/v) fetal bovine serum. At the start of the experiment, MM6 cells were seeded in 96-well plates at a density of 1×10^5 cells/mL (100 μL per well in cell the viability experiments, and 150 μL per well in the TNF release experiments—see below).
The MM6 cells were treated (incubation conditions as above) with indicated final concentrations of the test drugs for 48 hours prior to quantification of cell viability/growth or stimulation with phorbol-12-myristate-13-acetate (PMA; Sigma Aldrich, Stockholm, Sweden) followed by measurement of PMA-induced TNF-release (see below for details).
MM6 cell growth/viability was measured using the Cell Proliferation Reagent WST-1 (Roche Diagnostics Scandinavia AB, Bromma, Sweden). The WST-1 reagent is designed to be used for spectrophotometric quantification of e.g. cell growth and viability and. was used according to the manufacturers' instructions. […]
On the technique in general: Tetrazolium assays rely on reduction of a dye to a coloured formazan, in cell work by metabolically active cells.

Consider `CC(C)c1c(C(=O)Nc2ccccc2)c(-c2ccccc2)c(-c2ccc(F)cc2)n1CC[C@@H](O)C[C@@H](O)CC(=O)O` [atorvastatin], for which the viability at 48 h, 10 μM is 94%.

Values taken from patent publication US20100056552A1, “COMBINATION FOR USE IN THE TREATMENT OF INFLAMMATORY DISORDERS” (priority 2007, published 2010).
